No constants are given. Whether binding was seen depends on the method and setting. Binding seen in cells or lysates may run through a third protein. Here binding means that the protein was enriched with, or labelled near, the bait; the list need not be complete. A no says only that the protein was not detected with the bait.
B1: ARP6 (protein, UniProt P45890 1-398)
chain: MANAVVVLDNGAHTAKVGLANQDEPHVVPNCIMKAKSERRRAFVGNQIDECRDTSALYYILAFQRGYLLNWHTQKTVWDYIFSKDGIGCSLENRNIVITEPQMNFQSIQEATLEILFEEYKVDGVYKTTAADLAAFNYVADSEERTTMESLNCIIIDVGYSFTHVVPFVLGRRVLQGIRRIDMGGKALTNQLKELISYRHLNVMDESHVVNQIKEDVCFVAEDFKQAMQVHYSEEKRREVTVDYVLPDFTTVKRGYVRVPGKPREDEEQQQMVSLCNERFTVPELLFNPSDIGVQQVGIPEAVADCLKACPWEAHRELLLNILIVGGSAQFPGFLPRLKRDLRALVPDDLEVSLICPEDPVRYAWYGGKEVATSPNFEEFVYTQDDYEEYGFQGINQR
B2: ING3 (protein, UniProt Q9VWS0 1-686)
chain: MLYLEDYLEMIEHLPQELRDRFTEMRELDLAVQNNMDSLDKKAHMFFKQCKRDELQHESMDTEFHSLRGEYFKVMEDADEKVAIATQIHELVERYLRRLDSELFKFKCELEADNNGITEILERRSLELDGNSTAATALLLSMNQKENRYYGASSANTMVNSSTGHATGAATGSSGIALVSGAAGTGGALSSISTAQLGSSQRHRKLEKRRETICTVPVQEKRANLNHSLPVVGSGSTTAAAASSSSATTAAAAASLASATTAQTHVSNHIGSIAATHLTLPVAMGVAGGSSSLASSSLATGTGSLVRQLPTNLTHTVLSTSGGATAAAAAGGNSTSVVAAGTAHGHAHVSGHSAAGATVTYNLQQLGGGAAASSAIAAAASQAIVATQQMQQGRRTASLKASYEAIHGTAGTTTDFWTQAGQGGLQQSTAGSVTVAAGTALATGAAGGSSTGSHHSHHSQSHHGGHGHGHGHGHGHGHGHGHHSSSGHGGGHSSHHQEKKQKKKLTTALTLPTVQPTAGSSSGNSIGSSSSISLESVNKLTTSAALAAASATTTYMSVGGQALLAMTPGGGGGGNLAESSAEGVPAGMIAMNLPTTTVTPGSSLTIGENGLVVEQTNEGEWSYDPNEPRYCTCNQVSYGDMVACDNDACPYEWFHYPCVGITQPPKGKWYCPKCTASMRRRGNRKN

Amino acid sequences for entries named in this document (tags omitted).
UniProt Q9NDJ2: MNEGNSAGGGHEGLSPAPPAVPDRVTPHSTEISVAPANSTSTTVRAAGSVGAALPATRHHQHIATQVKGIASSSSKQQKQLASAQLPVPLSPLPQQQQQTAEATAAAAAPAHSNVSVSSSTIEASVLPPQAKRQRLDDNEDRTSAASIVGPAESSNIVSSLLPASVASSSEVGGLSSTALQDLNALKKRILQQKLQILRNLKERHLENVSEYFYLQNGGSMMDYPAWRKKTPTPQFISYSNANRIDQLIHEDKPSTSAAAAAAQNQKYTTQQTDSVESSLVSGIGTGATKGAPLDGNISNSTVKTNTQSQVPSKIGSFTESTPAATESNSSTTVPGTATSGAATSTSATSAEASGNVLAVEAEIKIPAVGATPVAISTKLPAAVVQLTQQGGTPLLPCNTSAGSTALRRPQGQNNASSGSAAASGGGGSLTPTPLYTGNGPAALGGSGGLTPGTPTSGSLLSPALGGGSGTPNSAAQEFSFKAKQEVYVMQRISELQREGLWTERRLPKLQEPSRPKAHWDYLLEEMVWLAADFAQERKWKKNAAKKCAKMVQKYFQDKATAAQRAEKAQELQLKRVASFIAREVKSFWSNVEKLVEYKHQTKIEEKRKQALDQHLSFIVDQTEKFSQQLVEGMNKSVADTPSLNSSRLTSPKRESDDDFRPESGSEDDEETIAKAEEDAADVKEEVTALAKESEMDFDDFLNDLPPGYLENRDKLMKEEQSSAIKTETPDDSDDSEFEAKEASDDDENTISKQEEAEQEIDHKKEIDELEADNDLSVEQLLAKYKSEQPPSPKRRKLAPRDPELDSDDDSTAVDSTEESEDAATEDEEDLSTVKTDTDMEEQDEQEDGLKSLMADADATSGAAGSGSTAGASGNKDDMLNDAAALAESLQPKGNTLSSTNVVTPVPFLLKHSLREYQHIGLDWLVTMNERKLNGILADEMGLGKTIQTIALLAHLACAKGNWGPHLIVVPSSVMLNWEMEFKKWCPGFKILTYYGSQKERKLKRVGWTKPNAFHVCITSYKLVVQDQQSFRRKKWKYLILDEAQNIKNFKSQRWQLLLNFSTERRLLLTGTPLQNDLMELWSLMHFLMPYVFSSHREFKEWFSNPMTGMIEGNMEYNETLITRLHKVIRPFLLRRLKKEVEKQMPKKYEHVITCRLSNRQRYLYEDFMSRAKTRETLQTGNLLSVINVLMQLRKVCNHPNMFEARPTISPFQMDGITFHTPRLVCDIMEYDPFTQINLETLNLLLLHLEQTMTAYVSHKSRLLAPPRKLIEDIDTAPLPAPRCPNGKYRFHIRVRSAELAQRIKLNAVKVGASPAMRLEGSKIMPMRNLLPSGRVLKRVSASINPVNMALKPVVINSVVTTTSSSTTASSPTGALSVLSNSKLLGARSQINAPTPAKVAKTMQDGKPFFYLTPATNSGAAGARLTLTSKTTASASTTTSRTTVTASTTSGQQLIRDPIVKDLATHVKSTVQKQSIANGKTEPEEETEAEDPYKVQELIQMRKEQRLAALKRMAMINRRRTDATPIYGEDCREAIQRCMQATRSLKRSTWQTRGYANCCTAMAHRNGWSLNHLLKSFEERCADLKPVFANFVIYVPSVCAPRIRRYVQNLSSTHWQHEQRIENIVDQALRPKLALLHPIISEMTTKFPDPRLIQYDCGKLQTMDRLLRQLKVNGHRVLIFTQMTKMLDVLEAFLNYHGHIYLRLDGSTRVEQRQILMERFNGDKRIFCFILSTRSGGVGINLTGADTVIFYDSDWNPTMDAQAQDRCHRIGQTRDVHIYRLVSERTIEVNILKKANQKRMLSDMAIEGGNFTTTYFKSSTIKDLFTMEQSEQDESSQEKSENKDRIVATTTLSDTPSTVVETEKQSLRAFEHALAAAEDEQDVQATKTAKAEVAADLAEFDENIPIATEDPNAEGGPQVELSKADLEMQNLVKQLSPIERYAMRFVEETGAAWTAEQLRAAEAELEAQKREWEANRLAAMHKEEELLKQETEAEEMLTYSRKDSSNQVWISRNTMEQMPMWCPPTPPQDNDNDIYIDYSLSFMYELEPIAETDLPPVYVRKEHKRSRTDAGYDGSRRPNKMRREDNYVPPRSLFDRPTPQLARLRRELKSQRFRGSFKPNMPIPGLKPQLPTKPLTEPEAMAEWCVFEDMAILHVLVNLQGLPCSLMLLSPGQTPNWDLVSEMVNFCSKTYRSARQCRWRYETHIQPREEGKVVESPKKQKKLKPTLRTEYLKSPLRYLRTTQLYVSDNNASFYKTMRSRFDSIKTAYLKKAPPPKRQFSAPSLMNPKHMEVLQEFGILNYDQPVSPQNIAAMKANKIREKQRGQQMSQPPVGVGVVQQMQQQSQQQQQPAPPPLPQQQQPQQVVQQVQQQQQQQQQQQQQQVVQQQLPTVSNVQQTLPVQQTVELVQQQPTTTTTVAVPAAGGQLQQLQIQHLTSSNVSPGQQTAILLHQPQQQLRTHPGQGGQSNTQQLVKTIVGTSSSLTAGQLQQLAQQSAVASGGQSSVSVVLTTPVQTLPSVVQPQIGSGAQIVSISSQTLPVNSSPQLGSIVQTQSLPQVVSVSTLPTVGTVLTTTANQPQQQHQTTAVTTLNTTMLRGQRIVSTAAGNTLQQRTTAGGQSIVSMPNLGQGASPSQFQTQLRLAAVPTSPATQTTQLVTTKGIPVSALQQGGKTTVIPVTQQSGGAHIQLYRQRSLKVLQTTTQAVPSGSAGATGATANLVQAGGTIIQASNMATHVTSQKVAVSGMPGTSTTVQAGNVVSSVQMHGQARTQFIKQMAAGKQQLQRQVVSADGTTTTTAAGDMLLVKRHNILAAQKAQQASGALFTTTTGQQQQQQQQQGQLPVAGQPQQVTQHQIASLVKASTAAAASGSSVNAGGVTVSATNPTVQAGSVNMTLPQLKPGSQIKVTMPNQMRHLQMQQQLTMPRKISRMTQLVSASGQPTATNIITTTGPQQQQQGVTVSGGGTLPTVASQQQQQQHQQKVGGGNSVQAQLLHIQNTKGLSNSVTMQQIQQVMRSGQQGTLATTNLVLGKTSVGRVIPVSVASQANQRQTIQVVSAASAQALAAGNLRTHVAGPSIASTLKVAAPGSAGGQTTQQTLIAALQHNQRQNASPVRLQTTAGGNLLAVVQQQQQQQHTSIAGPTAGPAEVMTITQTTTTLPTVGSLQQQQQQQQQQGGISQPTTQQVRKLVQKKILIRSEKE
UniProt Q960X4: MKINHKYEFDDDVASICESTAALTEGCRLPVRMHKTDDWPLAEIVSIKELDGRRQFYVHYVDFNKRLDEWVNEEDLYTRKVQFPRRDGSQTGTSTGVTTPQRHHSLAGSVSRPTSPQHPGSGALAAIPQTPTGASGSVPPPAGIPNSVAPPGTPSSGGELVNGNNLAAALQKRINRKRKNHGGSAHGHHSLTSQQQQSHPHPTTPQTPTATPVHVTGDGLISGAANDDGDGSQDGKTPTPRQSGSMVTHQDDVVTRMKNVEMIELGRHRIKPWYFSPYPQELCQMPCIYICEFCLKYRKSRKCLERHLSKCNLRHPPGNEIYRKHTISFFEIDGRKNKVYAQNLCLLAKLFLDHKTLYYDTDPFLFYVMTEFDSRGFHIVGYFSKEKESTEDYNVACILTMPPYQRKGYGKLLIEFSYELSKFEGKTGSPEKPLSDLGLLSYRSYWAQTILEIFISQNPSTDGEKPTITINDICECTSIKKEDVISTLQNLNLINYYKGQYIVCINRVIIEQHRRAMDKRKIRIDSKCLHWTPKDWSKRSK

Molecular target: DOM-A (DOMINO isoform A, DOM-RA), endogenously 3XFLAG-tagged (D. melanogaster (endogenous in S2 cells)) (UniProt Q9NDJ2)
Experiment: affinity purification with mass spectrometry; FLAG-m2 beads on 2 mg nuclear extract of S2 cells with endogenously 3XFLAG-tagged DOM-A or DOM-B, against mock purification from untagged S2 cells; Protein-RIPA buffer (150 mM NaCl, 0.5% IGEPAL, 0.5% Na-deoxycholate, 0.1% SDS) diluted 1:1, Benzonase, 3 hr at 4°C; very stringent conditions; enriched: FDR < 0.05 and log2 fold-change >0

binding	Molecule
binds	NIPPED-A (from UniProt Q8I8U7 1-3790)
binds	TIP60 (from UniProt Q960X4 1-541) (enzyme)
no binding	B1
binds	B2

From article PMC7239659
